Assay results: publication PMC9410875, “FOXL2 and FOXA1 cooperatively assemble on the TP53 promoter in alternative dimer configurations”
No constants are given. Whether binding was seen depends on the method and setting.

The chains behind the UniProt entries cited, without tags or fusion partners. Residues count along the entry.
UniProt O43524, residues 155-251: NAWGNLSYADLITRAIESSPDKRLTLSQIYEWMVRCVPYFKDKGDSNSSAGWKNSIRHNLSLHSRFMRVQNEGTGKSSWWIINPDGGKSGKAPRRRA

How the values were obtained:
[1] = biological target: FOXO3-DBD (residues 155–251) (human) (UniProt O43524); test: SEC-MALS; Superdex 200 10/300 GL; 20 mM HEPES pH 7.5, 150 mM NaCl, 10 mM MgCl2; proteins injected at 5–7 mg/ml, 0.4 ml/min; protein alone, without DNA; both purified
[2] = biological target: FOXL2-DBD (residues 52–148 of human FOXL2) (human) (UniProt P58012); test: as above
[3] = biological target: FOXL2-DBD (residues 52–148 of human FOXL2) (human) (UniProt P58012); test: crystal structure; FOXL2-DBD with 16 bp p53-DNA, two DBDs on one DNA; 6% ethylene glycol, 0.1 M citric acid pH 3.5, 15% PEG 6000; 3.15 Å; both purified

## FOXO3-DBD (residues 155–251) (from UniProt O43524 155-251) (domain or fragment)
[1]
  binding: no binding (tested: 5–7 mg/ml)

B1: FOXL2-DBD (residues 52–148 of human FOXL2) (domain or fragment, UniProt P58012 52-148)
chain: AQKPPYSYVALIAMAIRESAEKRLTLSGIYQYIIAKFPFYEKNKKGWQNSIRHNLSLNECFIKVPREGGGERKGNYWTLDPACEDMFEKGNYRRRRR
[2]
  binding: no binding (tested: 5–7 mg/ml)
[3]
  binding: no binding
